# Laboratory results reported in article PMC8266168.
# These are yes or no findings as the source states them, for the method shown. Binding seen in cells or lysates may run through a third protein. Some binding calls cover weakened binding; strength is not graded here.
# T1: ETS proto-oncogene 1 (human (endogenous in HUVECs)) (UniProt P14921)
# T1 sequence: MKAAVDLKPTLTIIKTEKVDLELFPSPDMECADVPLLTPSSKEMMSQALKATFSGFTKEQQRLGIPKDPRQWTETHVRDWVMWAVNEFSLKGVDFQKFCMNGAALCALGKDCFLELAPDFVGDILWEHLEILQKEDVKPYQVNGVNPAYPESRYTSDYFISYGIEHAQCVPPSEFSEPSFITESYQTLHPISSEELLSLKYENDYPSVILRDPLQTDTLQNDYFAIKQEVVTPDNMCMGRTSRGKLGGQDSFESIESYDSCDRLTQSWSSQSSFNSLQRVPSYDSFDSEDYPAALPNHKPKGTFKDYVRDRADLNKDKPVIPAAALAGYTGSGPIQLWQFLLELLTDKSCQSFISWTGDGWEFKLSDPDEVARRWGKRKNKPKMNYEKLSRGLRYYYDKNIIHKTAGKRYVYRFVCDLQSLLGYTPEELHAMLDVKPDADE
# B1: lysine methyltransferase 5A (protein, UniProt Q9NQR1 1-393)
# chain: MGEGGAAAALVAAAAAAAAAAAAVVAGQRRRRLGRRARCHGPGRAAGGKMSKPCAVEAAAAAVAATAPGPEMVERRGPGRPRTDGENVFTGQSKIYSYMSPNKCSGMRFPLQEENSVTHHEVKCQGKPLAGIYRKREEKRNAGNAVRSAMKSEEQKIKDARKGPLVPFPNQKSEAAEPPKTPPSSCDSTNAAIAKQALKKPIKGKQAPRKKAQGKTQQNRKLTDFYPVRRSSRKSKAELQSEERKRIDELIESGKEEGMKIDLIDGKGRGVIATKQFSRGDFVVEYHGDLIEITDAKKREALYAQDPSTGCYMYYFQYLSKTYCVDATRETNRLGRLINHSKCGNCQTKLHDIDGVPHLILIASRDIAAGEELLYDYGDRSKASIEAHPWLKH
# Molecular target: T1, ETS proto-oncogene 1 (human (endogenous in HUVECs))
# Test: co-IP; endogenous IP from HUVEC cell protein extracts (lysis buffer with PMSF); specific primary antibodies and protein A/G Dynabeads, 4 °C for 12 h; input, IgG and IP extracts analysed by Western blot
binder,measurement,value
B1,binding,binds
